{
  "source": "PubChem BioAssay AID624405",
  "about": "(Broad Institute, 2012)",
  "note": "About 250 (13%) of roughly 1,900 compounds were called active. Not shown: some 4% with an inconclusive outcome.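 The calls were made as follows: active = fitted curve reaches 40% rescue activity at or below the top valid dose, in every test run; inconclusive = test runs disagree, some active and some inactive; inactive = every run misses the threshold or moves the wrong way.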 The entries are a selection whose mix differs from that of the whole data set. Entries with a potency or affinity are not part of this list.",
  "data": [
    {"assay": "suppressors of statin myotoxicity in myotubes, dose response, cell-based, C2C12 myotubes, ATP luminescence, cherry pick (AID 624405);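 also: myotubes are challenged with simvastatin at 10 µM to lower ATP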", "conditions": "C2C12 myotubes + simvastatin, 48 h, scaled: DMSO wells 0, geranylgeraniol wells 100; at 19.5 µM (top of the series) unless noted", "values": [
      {"smiles": "CCCCCCCNC(=O)C1(CC2CC(c3ccc(Cl)cc3)=NO2)CCN(C(=O)OC(C)(C)C)CC1", "note": "(stereo not given)", "rescue activity (ATP increase)": "inactive: 19%"},
      {"smiles": "C[C@H](CO)N1C[C@H](C)[C@H](CN(C)S(=O)(=O)c2ccc(F)cc2)Oc2ncc(C#Cc3cccc(F)c3)cc2C1=O", "rescue activity (ATP increase)": "inactive: 7.8%"},
      {"smiles": "Cc1ccccc1NC(=O)c1onc2c1CCCC2", "rescue activity (ATP increase)": "inactive: 19.9%"},
      {"smiles": "C/C(=N/NC(=O)c1ccc2c(c1)OCO2)c1cccc(NC(=O)C(C)(C)C)c1", "rescue activity (ATP increase)": "inactive: -39.2%"},
      {"smiles": "CCN(CC)c1ncnc2c1cnn2Cc1ccc(Cl)cc1", "rescue activity (ATP increase)": "inactive: 29.6%"},
      {"smiles": "CCOC(=O)N1CCN(C(=O)Cn2nc(C)c3sc4ccccc4c3c2=O)CC1", "rescue activity (ATP increase)": "inactive: 11.8%"},
      {"smiles": "C[C@H]1CCCCO[C@H](CN(C)C(=O)C2CCCCC2)[C@@H](C)CN([C@@H](C)CO)C(=O)c2cc(NC(=O)Cc3ccccc3)ccc2O1", "rescue activity (ATP increase)": "inactive: 1.27%"},
      {"smiles": "COc1ccc(COn2c(=O)c(C)[n+]([O-])c3ccccc32)cc1OC", "rescue activity (ATP increase)": "inactive: 15.1%"},
      {"smiles": "Cc1ccc(S(=O)(=O)Nc2ccc3c(c2)CC(=O)N([C@@H](C)CO)C[C@@H](C)[C@H](CN(C)Cc2ccc(Cl)c(Cl)c2)O3)cc1", "rescue activity (ATP increase)": "inactive: 29%"},
      {"smiles": "COc1cc(/C=C2\\SC(=S)N(NC(=O)c3ccc(O)c(OC)c3)C2=O)ccc1O", "rescue activity (ATP increase)": "inactive: -10.6%"},
      {"smiles": "O=C(c1ccc(CN2CCOCC2)cc1)N1CCN(c2cccc(Cl)c2)CC1", "rescue activity (ATP increase)": "inactive: -17.2%"},
      {"smiles": "C[C@@H]1CN([C@H](C)CO)C(=O)Cc2cc(NS(=O)(=O)c3ccc(F)cc3)ccc2O[C@H]1CN(C)Cc1ccc(Oc2ccccc2)cc1", "rescue activity (ATP increase)": "inactive: 33.8% [at 21 µM]"},
      {"smiles": "CCOCCn1c(COc2ccccc2)nc2ccccc21", "rescue activity (ATP increase)": "inactive: 17.6%"},
      {"smiles": "C[C@H]1CN([C@@H](C)CO)S(=O)(=O)c2ccc(-c3ccc(C(=O)N(C)C)cc3)cc2O[C@@H]1CN(C)C(=O)Cc1ccccn1", "rescue activity (ATP increase)": "inactive: 32.9%"},
      {"smiles": "O=C(NCC12CC3CC(CC(C3)C1)C2)c1nn2c(c1Cl)NC(c1ccco1)CC2C(F)(F)F", "note": "(stereo not given)", "rescue activity (ATP increase)": "inactive: 2.04%"},
      {"smiles": "CCN(C(=O)c1cnc(N2CCN(c3ncccn3)CC2)c2ccccc12)c1cccc(Cl)c1", "rescue activity (ATP increase)": "inactive: 28%"},
      {"smiles": "CCC1(CC)NC(=O)N(CC(=O)OCC(=O)Nc2ccc(C(F)(F)F)cc2)C1=O", "rescue activity (ATP increase)": "inactive: 23.8%"},
      {"smiles": "CC(=O)C[C@@H](O)CC(=O)[C@@H]1OC(=O)CCCCCCc2ccccc21", "rescue activity (ATP increase)": "inactive: 8.12%"},
      {"smiles": "C[C@H]1CN([C@@H](C)CO)C(=O)c2cc(NS(=O)(=O)c3ccccc3)ccc2O[C@@H]1CN(C)S(=O)(=O)c1cccs1", "rescue activity (ATP increase)": "inactive: 3%"},
      {"smiles": "CC(=O)Nc1ccc(NC(=O)CSc2nnc(C3CC3)n2C)cc1", "rescue activity (ATP increase)": "inactive: 15.5%"}
    ]}
  ]
}
